Measured values reported in the supplement of paper PMC12889115.
This is one part of the list. These are raw signals, not scaled to a control.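 Primary screen: polymyxin B was added at a level permeabilizing Salmonella outer membranes while sparing inner membranes. DMSO wells, both with and without polymyxin B, established maximum growth. Plate-to-plate variation meant each plate was ranked on its own, and the lowest-OD600 compounds were selected as hits.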

Tested on: Salmonella enterica serovar Typhimurium SL1344
Assay: bacterial growth OD600 after 18 h with compound and polymyxin B; higher = more bacterial growth (less inhibition)
Details: 50 µM, Mueller-Hinton broth

| SMILES | bacterial growth OD600 (polymyxin B 0.75 µg/mL) | bacterial growth OD600 (polymyxin B 1 µg/mL) |
| --- | --- | --- |
| Cc1ccccc1CC(C1CCN(C(=O)CSc2ccccc2)CC1)N(C)C(=O)Cn1cccn1 (centres undefined) | 0.665 |  |
| COc1ccc(CC2=NOC(CNC(=O)c3csc(Cc4ccccc4)n3)C2)cc1 (centres undefined) | 0.889 |  |
| CCN1CCN(C2(C(=O)NC(C)Cc3ccccn3)Cc3ccccc3C2)CC1 (centres undefined) | 0.831 |  |
| Cc1nc(C(C)NC(=O)c2cc(COc3cccc4cnccc34)on2)cs1 (centres undefined) |  | 0.977 |
| COc1ccc(C(=O)N2CCCC(Nc3ccc(C(C)C)cc3)C2)cc1F (centres undefined) |  | 0.006 |
| O=S(=O)(Cc1ccccc1)NCc1cccnc1Oc1ccccc1F |  | 0.741 |
| CCC1CN(Cc2ccc(O)c(OC)c2)Cc2ccc(Cl)cc2O1 (centres undefined) | 0.633 |  |
| CN(C(=O)C1CC1)C(Cc1ccc(F)cc1F)C1CCN(C(=O)c2ccc(F)cc2Cl)CC1 (centres undefined) | 0.653 |  |
| O=C(c1ccc(NC2CCOC2)nc1)N1CCC(Cn2cccn2)CC1 (centres undefined) |  | 0.954 |
